Patent US20180177845A1, “METHOD FOR TREATMENT OR PREVENTION OF A CANCER” (priority 2016, published 2018)

By UniProt entry, the sequences of proteins in these tests, tags left out. Where a name states a change or a piece, a line headed by the entry shows the natural chain unless it says otherwise. Residues count along the entry.
UniProt P16144, residues 28-1822: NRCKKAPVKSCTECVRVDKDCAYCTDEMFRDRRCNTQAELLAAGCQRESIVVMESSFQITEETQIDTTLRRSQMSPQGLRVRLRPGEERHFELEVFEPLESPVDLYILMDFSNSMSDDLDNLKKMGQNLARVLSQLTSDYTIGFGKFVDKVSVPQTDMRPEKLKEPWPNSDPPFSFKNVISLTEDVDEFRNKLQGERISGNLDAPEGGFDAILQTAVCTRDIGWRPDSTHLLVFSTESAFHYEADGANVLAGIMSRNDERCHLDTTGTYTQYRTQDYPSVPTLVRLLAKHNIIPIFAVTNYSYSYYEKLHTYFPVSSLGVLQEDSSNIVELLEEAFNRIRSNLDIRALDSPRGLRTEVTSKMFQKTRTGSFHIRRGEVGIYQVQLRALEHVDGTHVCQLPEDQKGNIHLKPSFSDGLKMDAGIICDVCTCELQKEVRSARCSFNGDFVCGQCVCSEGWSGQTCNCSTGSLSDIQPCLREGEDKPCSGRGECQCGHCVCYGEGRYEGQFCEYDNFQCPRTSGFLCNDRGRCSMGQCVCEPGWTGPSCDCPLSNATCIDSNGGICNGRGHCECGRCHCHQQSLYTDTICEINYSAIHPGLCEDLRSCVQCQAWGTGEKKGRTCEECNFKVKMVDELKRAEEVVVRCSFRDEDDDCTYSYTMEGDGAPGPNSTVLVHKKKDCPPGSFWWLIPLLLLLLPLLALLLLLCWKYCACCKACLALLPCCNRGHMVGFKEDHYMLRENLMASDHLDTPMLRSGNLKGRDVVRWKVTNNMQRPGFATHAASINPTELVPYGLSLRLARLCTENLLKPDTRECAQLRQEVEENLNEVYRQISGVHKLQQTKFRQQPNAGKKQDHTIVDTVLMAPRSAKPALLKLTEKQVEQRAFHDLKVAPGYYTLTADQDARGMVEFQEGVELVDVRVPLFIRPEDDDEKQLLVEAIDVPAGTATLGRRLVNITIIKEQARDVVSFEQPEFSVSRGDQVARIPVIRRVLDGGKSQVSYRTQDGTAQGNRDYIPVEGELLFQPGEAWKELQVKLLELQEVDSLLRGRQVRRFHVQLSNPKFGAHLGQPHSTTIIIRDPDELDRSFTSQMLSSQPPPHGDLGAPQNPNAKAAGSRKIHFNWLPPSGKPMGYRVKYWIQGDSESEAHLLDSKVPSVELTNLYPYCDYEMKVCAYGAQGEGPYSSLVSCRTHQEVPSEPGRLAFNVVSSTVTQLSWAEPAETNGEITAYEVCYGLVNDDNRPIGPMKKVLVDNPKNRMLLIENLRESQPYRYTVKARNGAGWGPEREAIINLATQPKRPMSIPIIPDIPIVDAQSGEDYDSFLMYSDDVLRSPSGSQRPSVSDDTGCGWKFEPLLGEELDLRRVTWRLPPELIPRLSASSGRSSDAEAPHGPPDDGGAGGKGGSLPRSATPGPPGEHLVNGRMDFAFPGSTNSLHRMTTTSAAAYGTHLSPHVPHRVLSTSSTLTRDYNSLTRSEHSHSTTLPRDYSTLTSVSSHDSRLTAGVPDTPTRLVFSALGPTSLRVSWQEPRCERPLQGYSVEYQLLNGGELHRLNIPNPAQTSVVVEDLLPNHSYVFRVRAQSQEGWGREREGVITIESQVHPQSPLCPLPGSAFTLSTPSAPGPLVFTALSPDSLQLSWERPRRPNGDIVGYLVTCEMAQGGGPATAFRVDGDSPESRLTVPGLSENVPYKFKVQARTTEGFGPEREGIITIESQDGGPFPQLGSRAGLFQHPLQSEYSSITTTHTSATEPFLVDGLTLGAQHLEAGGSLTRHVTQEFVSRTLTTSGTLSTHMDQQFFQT
UniProt P34152: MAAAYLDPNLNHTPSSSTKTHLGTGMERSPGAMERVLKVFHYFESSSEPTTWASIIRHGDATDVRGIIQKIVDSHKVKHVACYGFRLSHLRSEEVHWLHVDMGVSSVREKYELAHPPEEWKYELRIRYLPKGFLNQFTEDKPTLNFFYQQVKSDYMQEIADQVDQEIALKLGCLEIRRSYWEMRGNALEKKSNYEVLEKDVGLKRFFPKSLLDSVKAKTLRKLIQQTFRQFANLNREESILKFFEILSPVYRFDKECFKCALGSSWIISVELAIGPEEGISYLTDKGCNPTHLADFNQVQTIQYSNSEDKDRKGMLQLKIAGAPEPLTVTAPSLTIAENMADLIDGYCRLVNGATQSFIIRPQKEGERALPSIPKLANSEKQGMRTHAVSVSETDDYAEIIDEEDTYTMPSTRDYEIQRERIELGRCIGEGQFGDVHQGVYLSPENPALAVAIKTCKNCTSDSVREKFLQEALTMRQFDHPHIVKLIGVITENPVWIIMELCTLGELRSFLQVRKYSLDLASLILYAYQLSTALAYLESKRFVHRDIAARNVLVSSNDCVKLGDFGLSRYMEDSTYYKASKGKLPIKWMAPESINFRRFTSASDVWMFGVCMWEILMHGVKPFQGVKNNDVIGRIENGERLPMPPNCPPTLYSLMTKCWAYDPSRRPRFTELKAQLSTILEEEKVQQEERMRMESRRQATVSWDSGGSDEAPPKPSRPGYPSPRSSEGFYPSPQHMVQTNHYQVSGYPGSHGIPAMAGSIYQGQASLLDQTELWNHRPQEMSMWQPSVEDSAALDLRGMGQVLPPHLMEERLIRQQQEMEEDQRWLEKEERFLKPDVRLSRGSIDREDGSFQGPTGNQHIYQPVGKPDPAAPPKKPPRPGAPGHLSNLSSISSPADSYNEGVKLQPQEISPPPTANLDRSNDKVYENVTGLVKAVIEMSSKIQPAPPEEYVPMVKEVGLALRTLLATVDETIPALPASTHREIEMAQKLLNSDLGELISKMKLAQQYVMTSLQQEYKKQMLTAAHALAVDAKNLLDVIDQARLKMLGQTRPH

Legend:
β4 integrin [1] = target: T1, β4 integrin (human, UniProt P16144 28-1822, limits assumed); experiment: site-directed mutagenesis, immunoprecipitation
T1 construct: Endogenous full-length β4 integrin in lysates or immunoprecipitates; In cells it is paired with α6 integrin; also called integrin β4; ITGB4

β4 integrin [2] = target: T1, β4 integrin; experiment: immunoprecipitation and Western blot (FIG. 1d)
β4 integrin [3] = target: T1, β4 integrin; experiment: co-immunoprecipitation (FIG. 3(d))

binding (β4 integrin [2])	binding (β4 integrin [3])	Substance	binding (β4 integrin [1])
binds	–	FAK Gln382Ala (from UniProt P34152) (enzyme)	binds
binds	–	FAK Lys381Ala (from UniProt P34152) (enzyme)	binds
binds	–	FAK Glu380Ala (from UniProt P34152) (enzyme)	binds
–	binds	FAK^Y397F (from UniProt P34152) (enzyme)	–

These are yes or no findings as the source states them, for the method shown. Binding calls can cover weak binding; strength is not graded here. For some of these results: Binding seen in cells or lysates may run through a third protein.
